# These are yes or no findings as the source states them, for the method shown. Some entries that bind do so weakly or less than the wild type.
# Sequences of proteins named here, by UniProt entry; tags and fusion partners are left off.
# UniProt Q13435: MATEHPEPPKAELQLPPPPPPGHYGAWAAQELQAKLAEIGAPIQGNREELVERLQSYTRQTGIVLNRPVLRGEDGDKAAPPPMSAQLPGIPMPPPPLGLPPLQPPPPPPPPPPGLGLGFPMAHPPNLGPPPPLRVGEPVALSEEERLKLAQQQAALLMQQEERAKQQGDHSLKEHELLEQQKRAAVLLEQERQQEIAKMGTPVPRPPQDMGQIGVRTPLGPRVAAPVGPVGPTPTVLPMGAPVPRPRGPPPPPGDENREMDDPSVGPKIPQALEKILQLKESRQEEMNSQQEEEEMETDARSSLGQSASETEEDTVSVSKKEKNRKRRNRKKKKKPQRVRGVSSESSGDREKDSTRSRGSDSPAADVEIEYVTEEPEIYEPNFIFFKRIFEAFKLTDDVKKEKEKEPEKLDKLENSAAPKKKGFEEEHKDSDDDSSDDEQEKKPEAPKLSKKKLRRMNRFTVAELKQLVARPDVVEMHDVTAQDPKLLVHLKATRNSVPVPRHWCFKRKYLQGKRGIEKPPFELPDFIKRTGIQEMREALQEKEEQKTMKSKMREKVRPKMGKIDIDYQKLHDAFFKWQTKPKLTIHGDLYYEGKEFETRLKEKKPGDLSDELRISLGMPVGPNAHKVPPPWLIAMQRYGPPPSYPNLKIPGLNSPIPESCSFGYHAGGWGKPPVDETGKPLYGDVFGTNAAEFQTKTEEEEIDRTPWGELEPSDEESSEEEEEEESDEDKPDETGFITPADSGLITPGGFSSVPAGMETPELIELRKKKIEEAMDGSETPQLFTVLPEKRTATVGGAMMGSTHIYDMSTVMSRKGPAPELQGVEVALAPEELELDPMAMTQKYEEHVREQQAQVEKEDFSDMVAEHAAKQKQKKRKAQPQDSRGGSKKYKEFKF
# UniProt O75533: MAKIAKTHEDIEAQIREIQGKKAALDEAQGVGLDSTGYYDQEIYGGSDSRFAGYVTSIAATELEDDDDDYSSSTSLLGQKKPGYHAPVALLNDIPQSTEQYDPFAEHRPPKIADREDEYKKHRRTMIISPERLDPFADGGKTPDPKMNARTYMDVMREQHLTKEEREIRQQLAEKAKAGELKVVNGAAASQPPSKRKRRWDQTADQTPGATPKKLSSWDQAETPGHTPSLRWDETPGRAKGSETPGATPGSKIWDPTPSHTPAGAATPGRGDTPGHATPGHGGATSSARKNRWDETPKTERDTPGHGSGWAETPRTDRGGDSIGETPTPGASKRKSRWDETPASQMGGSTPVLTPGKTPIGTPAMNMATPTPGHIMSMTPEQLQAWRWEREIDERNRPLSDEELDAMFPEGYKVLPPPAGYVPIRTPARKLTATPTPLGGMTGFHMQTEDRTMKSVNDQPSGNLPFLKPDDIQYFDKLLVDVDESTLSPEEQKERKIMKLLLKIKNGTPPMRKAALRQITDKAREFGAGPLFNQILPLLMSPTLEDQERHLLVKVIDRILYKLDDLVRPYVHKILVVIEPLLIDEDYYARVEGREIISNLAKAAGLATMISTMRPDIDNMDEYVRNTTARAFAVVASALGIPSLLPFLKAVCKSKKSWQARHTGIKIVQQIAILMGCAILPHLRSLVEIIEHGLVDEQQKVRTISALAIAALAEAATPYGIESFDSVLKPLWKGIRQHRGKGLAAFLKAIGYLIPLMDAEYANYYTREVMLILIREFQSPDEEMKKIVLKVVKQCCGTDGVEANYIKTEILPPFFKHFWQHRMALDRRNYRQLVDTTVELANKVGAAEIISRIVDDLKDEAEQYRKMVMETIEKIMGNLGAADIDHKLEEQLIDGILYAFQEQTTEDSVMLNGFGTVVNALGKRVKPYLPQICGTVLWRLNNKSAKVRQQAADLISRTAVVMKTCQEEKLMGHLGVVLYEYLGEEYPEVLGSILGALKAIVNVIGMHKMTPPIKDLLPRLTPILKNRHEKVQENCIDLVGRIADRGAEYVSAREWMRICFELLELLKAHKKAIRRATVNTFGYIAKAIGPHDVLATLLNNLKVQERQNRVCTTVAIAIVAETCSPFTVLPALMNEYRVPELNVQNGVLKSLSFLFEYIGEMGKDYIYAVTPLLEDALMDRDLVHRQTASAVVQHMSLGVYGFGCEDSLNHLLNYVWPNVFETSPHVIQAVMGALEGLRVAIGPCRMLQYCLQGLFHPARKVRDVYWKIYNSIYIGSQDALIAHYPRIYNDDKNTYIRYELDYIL
# T1: SF3A2 (human (endogenous in HeLa)) (UniProt Q15428)
# T1 sequence: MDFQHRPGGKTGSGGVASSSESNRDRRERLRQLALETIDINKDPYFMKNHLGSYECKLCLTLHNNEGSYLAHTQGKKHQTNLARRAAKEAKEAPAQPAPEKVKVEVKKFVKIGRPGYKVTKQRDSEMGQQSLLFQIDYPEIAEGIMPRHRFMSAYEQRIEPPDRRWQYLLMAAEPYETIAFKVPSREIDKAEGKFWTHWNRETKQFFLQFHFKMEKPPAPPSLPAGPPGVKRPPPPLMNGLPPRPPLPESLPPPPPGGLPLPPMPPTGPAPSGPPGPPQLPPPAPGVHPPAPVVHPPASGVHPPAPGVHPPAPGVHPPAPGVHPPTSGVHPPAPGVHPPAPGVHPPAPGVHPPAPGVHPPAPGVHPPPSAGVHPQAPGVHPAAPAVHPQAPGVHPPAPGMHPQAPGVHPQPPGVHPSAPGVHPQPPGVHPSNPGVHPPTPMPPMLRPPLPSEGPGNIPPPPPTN
# T2: CWC22 (human (endogenous in HeLa)) (UniProt Q9HCG8)
# T2 sequence: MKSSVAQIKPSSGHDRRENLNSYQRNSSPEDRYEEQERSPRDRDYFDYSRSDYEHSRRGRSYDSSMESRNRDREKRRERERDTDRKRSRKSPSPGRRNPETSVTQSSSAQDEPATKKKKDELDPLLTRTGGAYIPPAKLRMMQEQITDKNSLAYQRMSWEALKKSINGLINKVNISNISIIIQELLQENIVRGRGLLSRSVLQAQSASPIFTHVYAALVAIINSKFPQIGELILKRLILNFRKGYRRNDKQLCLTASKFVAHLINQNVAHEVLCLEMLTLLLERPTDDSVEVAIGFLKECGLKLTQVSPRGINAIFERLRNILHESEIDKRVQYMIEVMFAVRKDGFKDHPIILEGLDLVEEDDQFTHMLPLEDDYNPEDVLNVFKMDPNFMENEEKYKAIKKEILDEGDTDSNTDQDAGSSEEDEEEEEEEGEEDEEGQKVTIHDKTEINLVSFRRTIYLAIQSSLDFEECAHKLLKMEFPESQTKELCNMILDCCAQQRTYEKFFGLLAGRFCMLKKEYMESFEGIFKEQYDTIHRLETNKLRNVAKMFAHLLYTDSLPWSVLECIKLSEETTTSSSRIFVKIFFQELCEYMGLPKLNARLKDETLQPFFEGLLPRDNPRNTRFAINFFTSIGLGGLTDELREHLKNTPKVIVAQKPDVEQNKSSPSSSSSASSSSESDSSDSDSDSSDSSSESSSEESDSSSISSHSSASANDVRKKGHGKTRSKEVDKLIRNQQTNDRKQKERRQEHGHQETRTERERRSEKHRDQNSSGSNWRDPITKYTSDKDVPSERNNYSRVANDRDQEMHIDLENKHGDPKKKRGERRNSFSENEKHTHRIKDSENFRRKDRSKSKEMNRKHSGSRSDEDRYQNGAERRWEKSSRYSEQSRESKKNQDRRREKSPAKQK
# Tests used:
# Assay in all cases: cryo-EM structure; B^AQR spliceosome assembled on MINX-3×MS2 pre-mRNA in HeLa nuclear extract supplemented with recombinant IBC(K829A); MBP-MS2 affinity purification, glycerol gradient, cross-linked with 0.1% glutaraldehyde; core map about 2.9 Å
# [1] = molecular target: T1, SF3A2 (human (endogenous in HeLa))
# [2] = molecular target: SF3B2 (human (endogenous in HeLa)) (UniProt Q13435)
# [3] = molecular target: T2, CWC22 (human (endogenous in HeLa))
binding [1],binding [2],binding [3],Molecule
binds,binds,,SF3B1 (from UniProt O75533 1-1304)
,,binds,"PRP2 (enzyme, UniProt O60231 1-1041) MATPAGLERWVQDELHSVLGLSERHVAQFLIGTAQRCTSAEEFVQRLRDTDTLDLSGPARDFALRLWNKVPRKAVVEKPARAAEREARALLEKNRSYRLLEDSEESSEETVSRAGSSLQKKRKKRKHLRKKREEEEEEEASEKGKKKTGGSKQQTEKPESEDEWERTERERLQDLEERDAFAERVRQRDKDRTRNVLERSDKKAYEEAQKRLKMAEEDRKAMVPELRKKSRREYLAKREREKLEDLEAELADEEFLFGDVELSRHERQELKYKRRVRDLAREYRAAGEQEKLEATNRYHMPKETRGQPARAVDLVEEESGAPGEEQRRWEEARLGAASLKFGARDAASQEPKYQLVLEEEETIEFVRATQLQGDEEPSAPPTSTQAQQKESIQAVRRSLPVFPFREELLAAIANHQVLIIEGETGSGKTTQIPQYLFEEGYTNKGMKIACTQPRRVAAMSVAARVAREMGVKLGNEVGYSIRFEDCTSERTVLRYMTDGMLLREFLSEPDLASYSVVMVDEAHERTLHTDILFGLIKDVARFRPELKVLVASATMDTARFSTFFDDAPVFRIPGRRFPVDIFYTKAPEADYLEACVVSVLQIHVTQPPGDILVFLTGQEEIEAACEMLQDRCRRLGSKIRELLVLPIYANLPSDMQARIFQPTPPGARKVVVATNIAETSLTIEGIIYVLDPGFCKQKSYNPRTGMESLTVTPCSKASANQRAGRAGRVAAGKCFRLYTAWAYQHELEETTVPEIQRTSLGNVVLLLKSLGIHDLMHFDFLDPPPYETLLLALEQLYALGALNHLGELTTSGRKMAELPVDPMLSKMILASEKYSCSEEILTVAAMLSVNNSIFYRPKDKVVHADNARVNFFLPGGDHLVLLNVYTQWAESGYSSQWCYENFVQFRSMRRARDVREQLEGLLERVEVGLSSCQGDYIRVRKAITAGYFYHTARLTRSGYRTVKQQQTVFIHPNSSLFEQQPRWLLYHELVLTTKEFMRQVLEIESSWLLEVAPHYYKAKELEDPHAKKMPKKIGKTREELG"

# From publication PMC10208982, “Structural basis of catalytic activation in human splicing” (Nature, 2023)
